PubChem BioAssay (EPA / NIEHS)
Values joined by “and” are separate entries in the source; they are usually repeats but may differ in a detail not shown here. Identical values can stand only once. The shares of active, inactive and inconclusive entries below differ from those in the screen. Where the call is inconclusive, the potency comes from a doubtful curve fit. Active and inactive are the calls of the source. The calls were made as follows: active = hit-call score of the fitted dose curve at least 0.9, where 1 is the maximum; inconclusive = response in the unintended direction; inactive = score below 0.9.

Assay: ACEA_ER_AUC_viability: ACEA Biosciences xCELLigence Real-Time Cell Analysis on Estrogen Receptor Agonism for Viability (AID 2283782);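 also: continuous compound exposure with impedance area under curve over 80 h; hit means loss of impedance signal meaning reduced cell growth or viability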
Procedure, shortened: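 T-47D; phenol red-free RPMI1640 + 10% CS-FBS; 8 conc., 1:4 serial, max 100 uM final, ≤0.5% DMSO; n = 2; continuous exposure; impedance monitored to 80 h post-dose; AUC vs DMSO.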

Compound | AC50 | outcome
ClC(c1ccccc1)(c1ccccc1)c1ccccc1 | active: 82.6 µM | –
CCCCOCCOCCOC(C)=O | – | inactive
Cc1occc(=O)c1OC(=O)C(C)C | – | inactive
CC(C=O)Cc1ccc(C(C)C)cc1 (configuration not stated) | inconclusive: 1.7 µM | –
CC1(C)CCC[C@]2(C)[C@H]3CC(=O)O[C@]3(C)CC[C@@H]12 | – | inactive
O=P(O)(O)OCCC(F)(F)C(F)(F)C(F)(F)C(F)(F)C(F)(F)C(F)(F)F | inconclusive: 53.8 µM | –
CN(C)C(=O)Nc1ccc(Oc2ccc(Cl)cc2)cc1 | – | inactive
FC(F)(F)C(F)(F)C(F)(F)C(F)(F)C(F)(F)C(F)(F)C(F)(F)C(F)(F)CCS | – | inactive
CCCC1O[C@@H]2C[C@H]3[C@@H]4CCC5=CC(=O)C=C[C@]5(C)[C@H]4[C@@H](O)C[C@]3(C)[C@]2(C(=O)CO)O1 (some centres not stated) | inconclusive: 0.0204 µM | –
CC1=C(C=O)C(C)(C)CCC1 | inconclusive: 0.134 µM | –
CC(C)CCCCCCCOC(=O)CCCCC(=O)OCCCCCCCC(C)C | – | inactive
CC/C=C\CC1=C(C)CCC1=O | active: 92.5 µM | –
C=CCCCCCCCCC=O | inconclusive: 8.88 µM | –
CC(C)OB(OC(C)C)OC(C)C | – | inactive
O=C(F)C1(F)C(F)(F)C(F)(F)C(F)(F)C(F)(F)C1(F)F | inconclusive: 0.00193 µM | –
CCN(CC)c1ccc2c(c1)Oc1cc(N(CC)CC)ccc1C21OC(=O)c2ccccc21 | active: 8.06 µM | –
Nc1ccc(O)c([N+](=O)[O-])c1 | active: 85.7 µM | –
C=C1C[C@]23C[C@@]1(O)CC[C@H]2[C@@]12C=C[C@H](O)[C@@](C)(C(=O)O1)[C@H]2[C@@H]3C(=O)O | – | inactive
CCCCNS(=O)(=O)c1ccc(C)cc1 | inconclusive: 50 µM | –

Compound | AC50 | outcome
C=CC(=O)OCC(F)(F)C(F)(F)C(F)(F)COC(=O)C=C | inconclusive: 22.8 µM | –
O=S(=O)(O)CCC(F)(F)C(F)(F)C(F)(F)C(F)(F)F | – | inactive
CCOC(=O)c1ccc(C2CCC(NC[C@H](O)COc3ccc(O)c(NS(C)(=O)=O)c3)CC2)cc1 (some centres not stated) | active: 5.31 µM | –
CCCC[O][Al]([O]CCCC)[O]CCCC | active: 59.3 µM | –
O=C(O)C(F)(OC(F)(F)C(F)(OC(F)(F)C(F)(OC(F)(F)C(F)(F)C(F)(F)F)C(F)(F)F)C(F)(F)F)C(F)(F)F (configuration not stated) | – | inactive
O=C(O)C(F)(F)C(F)(F)C(F)(F)OC(F)(F)F | inconclusive: 0.235 µM | –
O=C(CC(=O)C(F)(F)C(F)(F)F)C(F)(F)F | inconclusive: 0.167 µM | –
O=C(O)Cc1cc(I)c(Oc2ccc(O)c(I)c2)c(I)c1 | inconclusive: 23.8 µM and inconclusive: 9.92 µM | –
CCOC(=O)CN | – | inactive
O=C(O)CCCC(=O)O | – | inactive
OC(O)C(F)(F)C(F)(F)F | inconclusive: 19.5 µM | –
OCC(O)CC(F)(F)C(F)(F)C(F)(F)C(F)(F)C(F)(F)C(F)(F)C(F)(F)C(F)(F)F (configuration not stated) | – | inactive
C1CCC(SSC2CCCCC2)CC1 | active: 92.3 µM | –
CC1(C)C(=O)N(Cl)C(=O)N1Br | inconclusive: 10.7 µM | –
CCCCCc1cccc(=O)o1 | – | inactive
COC(CC(C)CCCC(C)(C)O)OC (configuration not stated) | – | inactive
CN(C)C(=O)Nc1ccccc1 | inconclusive: 50 µM | –
CC1=CC=C(C(C)C)CC1 | inconclusive: 50 µM | –
